Laboratory results: US7034070B2, “Arylalkyl aminofunctional silanes for epoxy laminates” (priority 2002, dated 2006)

Assay: Tensile strength of silane-treated glass fabrics
Conditions: 40% solids product, 7628 glass fabric

| Substance | RTS % (relative tensile strength, 128.7 kg/5 cm of 0.67% Z-6224 taken as 100) (Silane Conc. 0.40%) [%] | Tensile Strength (at break) (Silane Conc. 0.40%) [kg/5 cm] | RTS % (relative tensile strength, 128.7 kg/5 cm of 0.67% Z-6224 taken as 100) (Silane Conc. 0.67%) [%] | Tensile Strength (at break) (Silane Conc. 0.67%) [kg/5 cm] | RTS % (relative tensile strength, 128.7 kg/5 cm of 0.67% Z-6224 taken as 100) (Silane Conc. 1.00%) [%] | Tensile Strength (at break) (Silane Conc. 1.00%) [kg/5 cm] |
| --- | --- | --- | --- | --- | --- | --- |
| CH3CH2C6H4CH2NH(CH2)2NH(CH2)3Si(OCH3)3•HCl [Example 1] | 95.5 | 122.9 | 109 | 140.4 | 108 | 139.1 |
| CH3CH2C6H4CH2NH(CH2)2NH(CH2)3SiCH3(OCH3)2•HCl [Example 3] |  |  | 109 | 140 |  |  |
